Measurements published in PubChem BioAssay AID540276 (National Center for Advancing Translational Sciences (NCATS), 2011).
The whole screen tested about 300,000 compounds, of which about 5,400 (1.8%) were called active. This list was built around the results that the source calls inconclusive (neither active nor inactive); the mix of calls is not that of the screen. Calls follow the shape of the full dose curve; tested in HEK293 cells. Potencies of inconclusive entries are doubtful fits and often do not repeat.

Assay: qHTS for inhibitors of binding or entry into cells for Marburg Virus
Conditions: Marburg virus pseudotyped entry inhibition, cell reporter; activity change, negative = inhibition: at 37.8 µM (top of the series) unless noted
% is scaled to controls: 0 for no effect and ±100 for the full control effect; potency is read from the fitted curve at half-maximal effect.

Structure (SMILES)	Potency	activity change, negative = inhibition
O=C(CN1CCCC1)Nc1ccc(Cl)cc1C(=O)c1ccccc1	inconclusive: 0.562 µM [inhibitor, full curve, poor fit]	–
CC(=O)c1sc(NC(=O)COc2ccccc2)nc1C	–	inactive: 9.5% [at 46.1 µM]
CCOc1cc(/C=N/NC(=O)c2ccc(-c3csc(Nc4ccc(C)cc4)n3)cc2)ccc1OCC(=O)O	inconclusive: 1.41 µM [activator, partial curve, poor fit]	–
Cc1ccccc1-n1nc2c(c1NC(=O)c1ccc(Br)o1)CSC2	inconclusive: 1.26 µM [activator, partial curve, poor fit]	–
O=C(CSc1ncccn1)Nc1cccc2ccccc12	–	inactive: 5.28% [at 46.1 µM]
CCN(CC)C(=O)C(=O)Nc1ccc(OCc2ccccc2)cc1	inconclusive: 6.31 µM [activator, partial curve, poor fit]	–
CCOc1ccccc1CN(CCc1ccc2c(c1)OCO2)Cc1cccc(OC)c1OC	inconclusive: 35.5 µM [inhibitor, single point]	–
Cc1ccc(NC(=O)CNCc2ccccc2)c(Br)c1	–	inactive: 6.29% [at 46.1 µM]
COc1ccccc1N(CC(=O)NC1CCCCC1C)S(=O)(=O)c1cccs1 (stereo not given)	inconclusive: 0.282 µM [inhibitor, partial curve, poor fit]	–
Cc1ccc(S(=O)(=O)NCCC(=O)Nc2ccc(C)cc2C(=O)c2ccccc2)cc1	inconclusive: 35.5 µM [inhibitor, single point]	–
COc1ccc(-c2noc(-c3ccc(NC(C)c4ccccc4)c([N+](=O)[O-])c3)n2)cc1OC (stereo not given)	–	inactive: -19.4% [at 46.1 µM]
COc1cc(CNC2CCCCCCC2)cc(Cl)c1OC	inconclusive: 15.8 µM [inhibitor, single point]	–
O=C(Nc1cccc(C(F)(F)F)c1)c1cccnc1NCCO	–	inactive: 18.1% [at 46.1 µM]
NS(=O)(=O)c1ccc(CCNC(=O)Nc2ccc(Cl)cc2)cc1	inconclusive: 6.51 µM [activator, single point]	–
COc1ccc(NC(=O)c2ccccc2)cc1NS(=O)(=O)c1ccc(F)cc1	–	inactive: -6.77%
Cc1cc(C(F)(F)F)nc(Nc2nc(C)c3ccccc3n2)n1	–	inactive: -6.96%
COc1ccc(CCNCC(O)COc2ccc(OC)cc2C(C)(C)C)cc1 (stereo not given)	inconclusive: 11.2 µM [inhibitor, partial curve, poor fit]	–
O=C(Nc1ccc(NC(=O)c2cccs2)cc1)c1ccc2c(c1)OCO2	inconclusive: 7.08 µM [inhibitor, partial curve, poor fit]	–
Cc1ccc(-c2nc(S(=O)(=O)c3ccc(C)cc3)c(SCC(=O)NC3CCCCC3)o2)cc1	–	inactive: -4.89% [at 46.1 µM]
Cc1n[nH]c(=S)n1/N=C/c1ccc(OCc2ccc(Cl)cc2Cl)cc1	inconclusive: 35.5 µM [activator, single point]	–

Whole records, quoted from the list.
O=C(Nc1ccc(NC(=O)c2cccs2)cc1)c1ccc2c(c1)OCO2 is entered as Potency: inconclusive: 7.08 µM [inhibitor, partial curve, poor fit]
COc1ccc(-c2noc(-c3ccc(NC(C)c4ccccc4)c([N+](=O)[O-])c3)n2)cc1OC (stereo not given) is entered as activity change, negative = inhibition: inactive: -19.4% [at 46.1 µM]
